Measured values as given in patent US9492497B2, “Peptides for the treatment of cancer” (ÖSTERREICHISCHE AKADEMIE DER WISSENSCHAFTEN, priority 2013, dated 2016).
Not every detail of the peptide structures is certain; ends, links or a residue may be inferred. No end group written: not given here.

Legend:
[1] = Tryptophan fluorescence and quenching, cancer mimic; details: in presence of target lipid PS
Description: (§1) Tryptophan fluorescence spectra were obtained at room temperature using an excitation wavelength of 282 nm and a slit width of 5 nm for excitation and emission monochromators. Quenching of Tryptophan was carried out in the presence and absence of phospholipid liposomes (lipid to peptide ratio 25:1) using 0.1, 0.4 and 0.7 M acrylamide. The data were analyzed according to the Stern-Volmer equation: F0/F=1+KSV[Q] where F0 and F represent the fluorescence emission intensities in the absence and presence of the quencher molecule (Q) and KSV is the Stern-Volmer quenching constant, which is a quantitative measure for the accessibility of tryptophan to acrylamide (Tao, T. and Cho, J. Biochemistry 18(1979), 2759-2765).

[2] = Tryptophan fluorescence and quenching, healthy mimic; details: in presence of PC
Description: as §1

[3] = system: tumor over non tumor cells; test: Specificity for tumor over non tumor cells (PI uptake studies); type: cell-based, human
From the text: (§2) Epidermis was separated. […] The pellet was resuspended in melanocyte growth media (Biomedica). […] All cell cultures were periodically checked for mycoplasma.

[4] = system: caspase-3/7 activity of melanoma cell line SBcl-2; test: Spectrofluorimetric analysis of caspase-3/7 activity; type: cell-based, human; details: SBcl-2, 4 h
Description: Spectrofluorimetric analysis of caspase-3/7 activity 5×10^5 cells/ml were seeded into 96-well plate and grown overnight at 37° C. and 5% CO2. Cells were incubated with different concentrations of peptide for 4 hours. Apo-ONE® caspase-3/7 reagent was added in a 1:1 volume ratio and cells were incubated for 4 hours. Cells were then analyzed by fluorescence spectroscopy (GloMax®-Multi+ Microplate Multimode Reader with Instinc™). Untreated cells were used as negative control. Analysis was performed with Apo-ONE® Homogeneous Caspase-3/7 Assay (see FIG. 7).

[5] = system: melanoma cell line SBcl-2; test: MTS cell proliferation assay, SBcl-2; details: read-out: IC50 SBcl-2 (MTS); MTS cell viability assay, 24 h
Description: as §2
Cell proliferation was measured by using a CellTiter 96 AQ nonradioactive cell proliferation assay (Promega). Cells were plated in 96-well plates and grown until confluence. Peptides were added to a final concentration of 5-100 μM. After incubation for 24 h at 37° C. (5% CO2) MTS [3-(4,5-dimethylthiazol-2yl)-5-(3-carboxymethoxyphenyl)-2-(4-sulfophenyl)-2H-tetrazolium]-phenozine methosulfate solution (20 μl/well) was added and cells were again incubated for 2 h at 37° C. (5% CO2). The MIS compound is bioreduced by cells into a colored formazan product that is soluble in tissue culture medium. The quantity of the formazan product as measured by the amount of 490 nm absorbance is directly proportional to the number of living cells in culture. Data are calculated as a percentage of the control (untreated) samples and represent the average of three wells in one experiment which was repeated three times per cell line.
To determine long-time toxicity of peptides, a MTS cell proliferation assay was used to elucidate cell viability upon 24 h incubation with variant peptide concentration and human melanoma cell lines SBcl-2 and WM164 and non-differentiated human skin fibroblast cell line NHDF.

[6] = system: cancer cells (SBcl-2, WM164, TE671); test: PI-uptake assay, cancer cells pooled; type: cell-based
From the text: as §2

FWQRRIRRWRRFWQRRIRRWRR-NH2 [DIM-PEP-318]
blue shift of Trp emission wavelength, PS [1]: a blue shift in the presence of both model systems | blue shift of Trp emission wavelength, PC [2]: a blue shift in the presence of both model systems | activity and selectivity for cancer cells (in words) [3]: cancer and non-cancer active, non-selective | Cancer Specificity, -fold specificity for melanoma over non tumor skin cells ([3]; melanoma (SBcl2 or A375) over melanocytes or NHDF-c, 20 μM peptide, 8 hours, PI uptake): No (<1fold) (DIM-) | caspase-3/7 activity (in words) [4]: much lower caspase-3/7 activity | IC50 [5]: 6 µM | time to maximum toxicity against cancer cells [6]: 15 min
